# Source: the supplement of paper PMC10973195
# ± gives the standard deviation of the averaged measurements. Some of the results follow. Values are raw readings; no control value is given beside them.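 The test system is a mixed culture of neurons, microglia and astrocytes in which bacterial LPS triggers microglia-driven neuron loss, modelling inflammatory neurodegeneration. Each compound was compared with vehicle (DMSO) wells on the same plates, and the SYK inhibitor BAY61-3606 served as the reference neuroprotective control.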
# Key:
# Settings in all cases: 1 µM, treatment time 3 days
# [1] = tested on: rat primary cerebellar neuron-glia coculture; assay: microglia count (IB4+) per image field (cells per field); higher = more microglia
# [2] = tested on: rat primary cerebellar neuron-glia coculture; assay: necrotic cell count (DRAQ7+) per image field (cells per field); higher = more necrosis
# [3] = tested on: rat primary cerebellar neuron-glia coculture; assay: live neuron count (NeuO+) per image field (cells per field); higher = more surviving neurons
# [4] = tested on: rat primary cerebellar neuron-glia coculture; assay: median microglial FormFactor (circularity) per image (dimensionless (0-1)); higher = rounder, more ameboid microglia
Structure (SMILES),microglia count ([1]; LPS 0 ng/mL),microglia count ([1]; LPS 100 ng/mL),necrotic cell count ([2]; LPS 0 ng/mL),necrotic cell count ([2]; LPS 100 ng/mL),live neuron count ([3]; LPS 0 ng/mL),live neuron count ([3]; LPS 100 ng/mL),median microglial FormFactor ([4]; LPS 0 ng/mL),median microglial FormFactor ([4]; LPS 100 ng/mL)
CN1C(N)=N[C@](C)(c2cc(NC(=O)c3ccc(F)cn3)ccc2F)CS1(=O)=O,190 ± 32,440 ± 140,94.7 ± 30,949 ± 420,2560 ± 340,337 ± 400,0.537 ± 0.083,0.68 ± 0.071
CCN(CC)CCOc1ccc2c(c1)C(=O)c1cc(OCCN(CC)CC)ccc1-2,160 ± 40,432 ± 87,84 ± 27,1140 ± 370,2600 ± 420,206 ± 210,0.487 ± 0.1,0.663 ± 0.047
CNc1nc(NCc2ccc(NS(C)(=O)=O)cc2Cl)cc(-c2ccccn2)n1,207 ± 71,442 ± 86,66.8 ± 21,939 ± 580,2610 ± 590,684 ± 550,0.535 ± 0.06,0.635 ± 0.093
CCC[C@@H](NC(=O)N1C(=O)C(CC)(CC)[C@@H]1Oc1ccc(C(=O)N2CCN(C)CC2)cc1)c1ccc2c(c1)OCO2,158 ± 54,430 ± 73,93.3 ± 25,954 ± 340,2380 ± 370,603 ± 660,0.536 ± 0.086,0.67 ± 0.089
CC#CCn1c(N2CCC[C@@H](N)C2)nc2c1c(=O)n(Cc1nc(C)c3ccccc3n1)c(=O)n2C,195 ± 72,448 ± 98,86.3 ± 43,773 ± 270,2630 ± 450,592 ± 710,0.562 ± 0.087,0.626 ± 0.11
CC1(C)Oc2ncnc(N)c2N=C1c1ccc(C23CCC(CC(=O)O)(CC2)CC3)cc1,182 ± 99,420 ± 100,74.9 ± 27,804 ± 320,2610 ± 460,562 ± 460,0.52 ± 0.096,0.679 ± 0.077
O=c1ccn([C@@H]2O[C@H](CO)[C@@H](O)[C@H]2O)c(=O)[nH]1,171 ± 78,440 ± 87,84.5 ± 31,1120 ± 370,2720 ± 460,277 ± 190,0.52 ± 0.11,0.636 ± 0.045
CNC[C@H](O)c1ccc(O)c(O)c1,102 ± 37,469 ± 84,152 ± 40,124 ± 57,2650 ± 490,2410 ± 590,0.594 ± 0.068,0.597 ± 0.046
O=C(c1ccc(C(=O)N2CCC(N3CCCC3)CC2)c(Nc2ccccc2)c1)N1CCC(N2CCCC2)CC1,186 ± 39,454 ± 90,72.2 ± 24,790 ± 360,2600 ± 470,425 ± 500,0.563 ± 0.072,0.662 ± 0.092
CC(CCc1ccccc1)NCC(O)c1ccc(O)c(C(N)=O)c1 (centres undefined),132 ± 30,413 ± 63,103 ± 47,412 ± 160,2650 ± 520,1390 ± 800,0.578 ± 0.066,0.615 ± 0.12
O=C1C2C=Nc3ccccc3C2=NN1c1ccc(Cl)cc1 (centres undefined),286 ± 370,474 ± 100,69 ± 30,766 ± 400,2470 ± 610,574 ± 590,0.554 ± 0.067,0.602 ± 0.092
O=c1cc(-c2cccc3c2Sc2ccccc2S3)oc(N2CCOCC2)c1,313 ± 550,472 ± 72,98.8 ± 64,1430 ± 530,1840 ± 750,463 ± 310,0.57 ± 0.073,0.704 ± 0.037
CC1(C)C[C@@H](CN2CCC(F)(CNC(=O)c3cc(Cl)cc(Cl)c3)CC2)CCO1,163 ± 28,416 ± 50,85.6 ± 29,967 ± 300,2700 ± 640,432 ± 420,0.536 ± 0.072,0.632 ± 0.066
